Results published in article PMC2412914.
No constants are given. Whether binding was seen depends on the method and setting. Binding seen in cells or lysates may run through a third protein. Some entries that bind do so weakly or less than the wild type.

By UniProt entry, the sequences of proteins in these tests, tags left out. Where a name states a change or a piece, a line headed by the entry shows the natural chain unless it says otherwise.
UniProt P04608: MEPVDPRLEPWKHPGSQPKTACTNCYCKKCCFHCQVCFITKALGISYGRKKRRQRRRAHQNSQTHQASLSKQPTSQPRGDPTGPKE
UniProt P50750: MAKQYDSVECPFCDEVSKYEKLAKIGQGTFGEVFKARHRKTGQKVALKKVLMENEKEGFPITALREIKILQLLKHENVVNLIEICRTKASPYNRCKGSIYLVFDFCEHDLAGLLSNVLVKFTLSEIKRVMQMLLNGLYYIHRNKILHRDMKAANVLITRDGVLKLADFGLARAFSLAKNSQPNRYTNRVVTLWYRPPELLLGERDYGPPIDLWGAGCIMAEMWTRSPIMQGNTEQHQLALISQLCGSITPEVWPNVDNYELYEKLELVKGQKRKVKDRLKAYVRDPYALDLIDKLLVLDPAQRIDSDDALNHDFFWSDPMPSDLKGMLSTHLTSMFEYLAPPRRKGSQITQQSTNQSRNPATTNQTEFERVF

Molecular target: purified wild type Tat 1–86 (HIV-1) (UniProt P04608)
Assay: pull-down; biotin-TAR RNA (1.5 ug) held on streptavidin beads; purified Tat incubated with CEM nuclear extract (2 mg/reaction) in TNE50 buffer with protease inhibitors and RNAsin overnight at 4°C; Western blot for cyclin T; only the target purified

Substance: endogenous Cdk9/cyclin T complex (from UniProt P50750 1-372; O60563 1-726)
- binding: binds
